PubChem BioAssay AID504804 – Drosophila RNAi Screening Center | 2011
Purpose: 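Fly genes whose loss lessens doxorubicin-driven cell death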 (primary screen). System: Drosophila Kc cells. Knock-down reagent: long dsRNA against Drosophila genes, 0.5 µg dsRNA per well. Timing: 96 h (48 h knock-down, then 48 h drug). Conditions: doxorubicin 5 µg/ml for 48 h, added 48 h after dsRNA. Detection: 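Luminescent ATP counts per replicate, not normalised, reflecting viable cells after 48 h dsRNA knock-down followed by 48 h of 5 µg/ml doxorubicin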. Scale: raw ATP luminescence: higher = more viable cells, protection from doxorubicin. Rule for the call: 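Active when both duplicate wells lie at least 2 SD above the plate mean and protection is confirmed by rescreening and independent dsRNAs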.
The deposit covers about 19,000 reagents; below is a random part of those with a known target gene and a result. Of all reagents, 47 (0.25%) got an active call. 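Signals are raw, not normalised; exact z-scores behind calls not deposited; actives needed confirmation, so some wells reaching 2 SD are inactive.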 The numbers tell different reagents against one gene apart. Names joined by + are all predicted targets of the reagent.

Knock-down of Irbp gave: raw ATP luminescence, replicate 1 = 56593; raw ATP luminescence, replicate 2 = 53443; inactive.
Depletion of Cpr66D #1 gave: raw ATP luminescence, replicate 1 = 62227; raw ATP luminescence, replicate 2 = 74380; inactive.
Cpr66D #2 showed raw ATP luminescence, replicate 1 = 71243; raw ATP luminescence, replicate 2 = 67940; inactive.
Knock-down of E(spl)m6-BFM gave: raw ATP luminescence, replicate 1 = 64110; raw ATP luminescence, replicate 2 = 57230; inactive.
Silencing of CG14130 gave: raw ATP luminescence, replicate 1 = 1.01e5; raw ATP luminescence, replicate 2 = 68300; inactive.
CG10864 scored raw ATP luminescence, replicate 1 = 47940; raw ATP luminescence, replicate 2 = 72020; inactive.
CG17806 gave raw ATP luminescence, replicate 1 = 38783; raw ATP luminescence, replicate 2 = 34233; inactive.
Knock-down of rut gave: raw ATP luminescence, replicate 1 = 83420; raw ATP luminescence, replicate 2 = 72670; inactive.
For Zcchc7 the deposit lists raw ATP luminescence, replicate 1 = 29857; raw ATP luminescence, replicate 2 = 22210; inactive.
Against CG8501, the entry reads raw ATP luminescence, replicate 1 = 47633; raw ATP luminescence, replicate 2 = 43180; inactive.
After knock-down of LSm7, the screen gave raw ATP luminescence, replicate 1 = 61470; raw ATP luminescence, replicate 2 = 60567; inactive.
Depletion of CG11825 came out at: raw ATP luminescence, replicate 1 = 45590; raw ATP luminescence, replicate 2 = 61877; inactive.
Knock-down of Rab9Db + Rab9Fa gave: raw ATP luminescence, replicate 1 = 3.77e5; raw ATP luminescence, replicate 2 = 3.41e5; inactive.
For Jhbp4 the deposit lists raw ATP luminescence, replicate 1 = 81850; raw ATP luminescence, replicate 2 = 78220; inactive.
With knock-down of SmD1, the record shows raw ATP luminescence, replicate 1 = 79720; raw ATP luminescence, replicate 2 = 57807; inactive.
For CG14151, the entry reads raw ATP luminescence, replicate 1 = 76030; raw ATP luminescence, replicate 2 = 68607; inactive.
After knock-down of CG44774, the screen gave raw ATP luminescence, replicate 1 = 56040; raw ATP luminescence, replicate 2 = 57170; inactive.
Knock-down of DIP-iota gave: raw ATP luminescence, replicate 1 = 29423; raw ATP luminescence, replicate 2 = 29713; inactive.

Targets listed so far whose target name begins with R or r (2):
rut — raw ATP luminescence, replicate 1: 83420; raw ATP luminescence, replicate 2: 72670; outcome: inactive
Rab9Db + Rab9Fa — raw ATP luminescence, replicate 1: 3.77e5; raw ATP luminescence, replicate 2: 3.41e5; outcome: inactive

Continued.
Silencing of fd102C came out at: raw ATP luminescence, replicate 1 = 69750; raw ATP luminescence, replicate 2 = 57540; inactive.
For Fas1, the values are raw ATP luminescence, replicate 1 = 72530; raw ATP luminescence, replicate 2 = 49120; inactive.
Depletion of CG8642 came out at: raw ATP luminescence, replicate 1 = 34093; raw ATP luminescence, replicate 2 = 63843; inactive.
Knock-down of CG10979 resulted in: raw ATP luminescence, replicate 1 = 69917; raw ATP luminescence, replicate 2 = 68723; inactive.
CG7024 gave raw ATP luminescence, replicate 1 = 36090; raw ATP luminescence, replicate 2 = 37560; inactive.
Silencing of CG8032 resulted in: raw ATP luminescence, replicate 1 = 69570; raw ATP luminescence, replicate 2 = 70713; inactive.
Against Vm26Ab, the values are raw ATP luminescence, replicate 1 = 24357; raw ATP luminescence, replicate 2 = 22203; inactive.
Against robo1, the entry reads raw ATP luminescence, replicate 1 = 44427; raw ATP luminescence, replicate 2 = 51303; inactive.
Skeletor (retired record) #1 showed raw ATP luminescence, replicate 1 = 68947; raw ATP luminescence, replicate 2 = 48550; inactive.
Knock-down of Skeletor (retired record) #2 resulted in: raw ATP luminescence, replicate 1 = 37623; raw ATP luminescence, replicate 2 = 20737; inactive.
Knock-down of CG17404 gave: raw ATP luminescence, replicate 1 = 62587; raw ATP luminescence, replicate 2 = 49023; inactive.
For Pgant9 the deposit lists raw ATP luminescence, replicate 1 = 1.06e5; raw ATP luminescence, replicate 2 = 1.17e5; inactive.
For DnaJ-1, the entry reads raw ATP luminescence, replicate 1 = 40007; raw ATP luminescence, replicate 2 = 37923; inactive.
Depletion of eIF1A gave: raw ATP luminescence, replicate 1 = 65750; raw ATP luminescence, replicate 2 = 79040; inactive.
With knock-down of CG10587, the screen gave raw ATP luminescence, replicate 1 = 71823; raw ATP luminescence, replicate 2 = 67117; inactive.
CG15650 scored raw ATP luminescence, replicate 1 = 67927; raw ATP luminescence, replicate 2 = 65567; inactive.
After knock-down of CHKov1 #1, the record shows raw ATP luminescence, replicate 1 = 2.39e5; raw ATP luminescence, replicate 2 = 2.04e5; inactive.
With knock-down of CHKov1 #2, the screen gave raw ATP luminescence, replicate 1 = 2.42e5; raw ATP luminescence, replicate 2 = 2.20e5; inactive.
With knock-down of CHKov1 #3 the results were raw ATP luminescence, replicate 1 = 58440; raw ATP luminescence, replicate 2 = 65090; inactive.
CHKov1 #4 showed raw ATP luminescence, replicate 1 = 2.01e5; raw ATP luminescence, replicate 2 = 2.13e5; inactive.
